Test results published in PMC11540904.
These are yes or no findings as the source states them, for the method shown. Some results given as binding are weak or reduced against the parent protein; the word gives no strength.

Protein sequences, listed by entry. Tags and fused reporters are not part of them.
UniProt P08413: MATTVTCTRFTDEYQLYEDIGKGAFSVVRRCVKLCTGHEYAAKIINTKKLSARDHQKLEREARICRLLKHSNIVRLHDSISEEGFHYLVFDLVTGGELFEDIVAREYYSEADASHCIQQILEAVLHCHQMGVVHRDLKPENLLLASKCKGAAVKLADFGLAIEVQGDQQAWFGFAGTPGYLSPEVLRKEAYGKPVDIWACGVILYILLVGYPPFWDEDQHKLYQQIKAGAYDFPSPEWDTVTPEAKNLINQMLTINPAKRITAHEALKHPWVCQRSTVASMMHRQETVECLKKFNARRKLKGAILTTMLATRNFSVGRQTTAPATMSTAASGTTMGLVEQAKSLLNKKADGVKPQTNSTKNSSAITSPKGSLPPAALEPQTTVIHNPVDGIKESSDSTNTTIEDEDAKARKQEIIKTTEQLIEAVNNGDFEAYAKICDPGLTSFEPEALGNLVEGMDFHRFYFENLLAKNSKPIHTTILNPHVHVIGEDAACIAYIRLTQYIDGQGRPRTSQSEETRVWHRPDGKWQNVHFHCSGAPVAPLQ

Biological target: Green Camuiβ (UniProt P08413)
Experiment: SEC; fluorescence-coupled SEC (FSEC): supernatant of sonicated transfected HEK293S GnTI- cells loaded directly onto Superose-6 in TBS (20 mM Tris-HCl pH 8.0, 200 mM NaCl), 0.4 ml/min; EGFP fluorescence 475/507 nm; approximate oligomeric state from retention time

Green Camuiβ (from UniProt P08413 1-542) (enzyme)
binding: binds
